From patent US20190144401A1, “IMINOSYDNONE DERIVATIVES FOR CONJUGATION AND RELEASE OF COMPOUNDS OF INTEREST” (UNIVERSITE DE STRASBOURG, priority 2014, published 2019)

Test: HPLC monitoring of the reaction of iminosydnones with TMTH in PBS buffer
Assay type: physicochemical
Conditions: after 30 min; 100 μM in PBS buffer (pH 7.4), 150 μM TMTH

| SMILES | extent of reaction with TMTH |
| --- | --- |
| Cc1ccc(NC(=O)[N-]c2c[n+](-c3ccccc3)no2)cc1 [Im5] | almost complete reaction |
| CC(=O)[N-]c1c[n+](-c2ccccc2)no1 [Im2] | almost complete reaction |
